Where two headings read alike, the source gives them in different places. These are yes or no findings as the source states them, for the method shown. In cells and extracts the contact can be indirect. Some binding calls cover weakened binding; strength is not graded here. For some of these results: Tags and fused reporters may be left off the sequences shown.
B1: split Venus-tagged E. coli Ribose 5-phosphate isomerase (RpiA) (enzyme, UniProt P0A7Z0 1-219)
chain: MTQDELKKAVGWAALQYVQPGTIVGVGTGSTAAHFIDALGTMKGQIEGAVSSSDASTEKLKSLGIHVFDLNEVDSLGIYVDGADEINGHMQMIKGGGAALTREKIIASVAEKFICIADASKQVDILGKFPLPVEVIPMARSAVARQLVKLGGRPEYRQGVVTDNGNVILDVHGMEILDPIAMENAINAIPGVVTVGLFANRGADVALIGTPDGVKTIVK

Amino acid sequences for entries named in this document (tags omitted). A change or cut given only in a name is not applied to a line headed by its entry.
UniProt P19525: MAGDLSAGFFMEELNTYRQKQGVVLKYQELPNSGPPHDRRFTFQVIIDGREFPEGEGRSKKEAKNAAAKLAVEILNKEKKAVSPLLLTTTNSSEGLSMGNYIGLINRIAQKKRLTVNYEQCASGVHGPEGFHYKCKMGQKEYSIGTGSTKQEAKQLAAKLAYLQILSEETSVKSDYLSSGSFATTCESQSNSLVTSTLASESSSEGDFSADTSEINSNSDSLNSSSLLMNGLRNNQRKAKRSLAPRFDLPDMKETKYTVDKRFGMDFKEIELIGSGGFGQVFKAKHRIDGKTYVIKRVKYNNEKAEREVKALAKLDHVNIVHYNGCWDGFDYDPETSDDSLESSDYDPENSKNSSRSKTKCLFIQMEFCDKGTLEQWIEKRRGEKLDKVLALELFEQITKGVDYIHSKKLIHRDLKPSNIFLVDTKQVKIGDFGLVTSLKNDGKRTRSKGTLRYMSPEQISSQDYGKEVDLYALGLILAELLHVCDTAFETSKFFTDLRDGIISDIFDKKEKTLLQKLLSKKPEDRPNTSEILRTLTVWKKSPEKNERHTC
UniProt P49247: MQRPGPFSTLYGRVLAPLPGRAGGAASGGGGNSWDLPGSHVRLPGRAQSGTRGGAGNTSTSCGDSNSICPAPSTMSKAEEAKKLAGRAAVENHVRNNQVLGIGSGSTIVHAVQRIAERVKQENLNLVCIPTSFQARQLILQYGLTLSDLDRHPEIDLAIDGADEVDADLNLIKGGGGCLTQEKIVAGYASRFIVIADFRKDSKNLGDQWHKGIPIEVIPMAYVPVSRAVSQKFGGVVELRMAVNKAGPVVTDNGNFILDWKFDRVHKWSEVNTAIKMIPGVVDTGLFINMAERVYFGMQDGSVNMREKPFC

How the values were obtained:
Experiment in all cases: split reporter; split Venus: V1 (Venus residues 1-210) and V2 (residues 210-238) fusions in pcDNA3 co-transfected into HEK293 (20 ng PKR construct, 50 ng RPIA construct per well), fixed after 48 h, fluorescence microscopy
[1] = biological target: split Venus-tagged human Protein Kinase RNA-activated (PKR), wild type (human) (UniProt P19525)
[2] = biological target: split Venus-tagged human Ribose 5-Phosphate Isomerase A (RPIA) (human) (UniProt P49247)
[3] = biological target: split Venus-tagged human Protein Kinase RNA-activated (PKR), kinase-dead point mutant K296R (human) (UniProt P19525)
[4] = biological target: split Venus-tagged human Ribose 5-Phosphate Isomerase A (RPIA) (human) (UniProt P49247); remark: listed apart in the source

Molecule	binding [1]	binding [2]	binding [3]	binding [4]
split Venus-tagged human Ribose 5-Phosphate Isomerase A (RPIA) (from UniProt P49247 1-311) (enzyme)	binds	binds	binds	–
B1	–	–	–	binds

Source: publication PMC11217295, “The immune response to RNA suppresses nucleic acid synthesis by limiting ribose 5-phosphate” (The EMBO Journal, 2024)
